Results reported in PMC10770081.
These are yes or no findings as the source states them, for the method shown. Binding seen in cells or lysates may run through a third protein.

Target: Flag-tagged recombinant NAT10 truncation with the 501–758 amino acids region removed
Test: co-IP; anti-Flag precipitation from J82 cells with Flag-tagged full-length or truncated CLIC3 or NAT10; blot for the endogenous partner; Co-IP buffer 20 mM Tris-HCl pH 7.5, 150 mM NaCl, 1 mM EDTA, 0.5% NP-40; 4 °C

- binding: no binding
B1: Chloride intracellular channel 3 (CLIC3) protein (protein, UniProt O95833 1-236)
chain: MAETKLQLFVKASEDGESVGHCPSCQRLFMVLLLKGVPFTLTTVDTRRSPDVLKDFAPGSQLPILLYDSDAKTDTLQIEDFLEETLGPPDFPSLAPRYRESNTAGNDVFHKFSAFIKNPVPAQDEALYQQLLRALARLDSYLRAPLEHELAGEPQLRESRRRFLDGDRLTLADCSLLPKLHIVDTVCAHFRQAPIPAELRGVRRYLDSAMQEKEFKYTCPHSAEILAAYRPAVHPR
